# This is one part of the list. Further columns of the screen follow, without active or inactive calls. Compounds called inactive in the main read-out are mostly missing here. The note in brackets gives the kind of curve behind each potency; many fits are weak.
# Experiment: qHTS Assay for Lipid Storage Modulators in Drosophila S3 Cells;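 as to cell number change: cells counted by Cell Tracker Red CMTPX staining in the red channel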
# Details: BODIPY lipid droplet fluorescence, 18-24 h; for cell number change: measured here: cell count max response, cells fed with added oleic acid
# Summary of the method: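 Drosophila S3 cells got compounds at several concentrations plus oleic acid (400 uM solution). Laser-scanning cytometry with 488 nm excitation read lipid droplets at 500-530 nm and cells at 575-640 nm. Percent activity was relative to 20 uM Triacsin C.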
# [1] = measured here: lipid fluorescence (Fed channel) AC50, cells fed with added oleic acid
# [2] = measured here: cell number channel AC50, cells fed with added oleic acid
Structure (SMILES),cell number change [%],AC50 [1],AC50 [2]
COCCNc1nnc(SCC(=O)Nc2sc3c(c2C(=O)c2ccccc2)CCCC3)s1,-28.8,"18400 nM [falling, partial curve, poor fit]",–
O=C(NC1CCCC1)c1cc(-c2cccc(Cl)c2)on1,23.3,"29.1 nM [rising, full curve]",–
CC(=O)c1ccc(N2CCN(S(=O)(=O)c3cccc4nsnc34)CC2)cc1,8.64,"116 nM [rising, full curve]",–
O=c1cnnc(Nc2ccc(F)cc2)[nH]1,-43.1,"23100 nM [falling, single point]","29100 nM [falling, single point]"
COc1ccc(NC(=O)c2cnc3sccn3c2=O)cc1,22.7,"16400 nM [rising, single point]",–
COc1cc(S(=O)(=O)NCCN2CCOCC2)c(OC)cc1Cl,-194,–,"25900 nM [falling, partial curve]"
COc1ccc(C(=O)NC(C)c2nnc(SCC(=O)Nc3nc4ccccc4s3)n2C)cc1 (stereo not given),-16.3,–,–
Cc1ccc(C)c(S(=O)(=O)N2CCN(Cc3ccc(O)c4ncccc34)CC2)c1,2.3,–,–
CCOc1ccc(/C=N/NC(=O)CN2CCCCC2)cc1OCC,-12.2,"580 nM [rising, partial curve, poor fit]",–
Cc1cccc(N2CCN(S(=O)(=O)c3cc4c(cc3Cl)NC(=O)CO4)CC2)c1C,24.5,–,"58 nM [rising, full curve, poor fit]"
Cc1cnc(C(=O)NC(C)CCc2ccccc2)cn1 (stereo not given),9,"6510 nM [rising, partial curve]","6510 nM [rising, partial curve, poor fit]"
OC(CNCc1ccco1)Cn1c2ccc(Br)cc2c2cc(Br)ccc21 (stereo not given),–,"4110 nM [rising, single point]",–
CC(=O)Nc1ccc(OCCC[n+]2ccccc2)cc1,-13.7,"326 nM [falling, partial curve, poor fit]",–
CCN(C(=O)c1cc(Cl)ccc1OC)C1CCCCC1,20.1,"29100 nM [rising, single point]",–
Nc1nc2n(n1)C(c1cccs1)CC(c1ccccc1)N2 (stereo not given),27.9,"146 nM [rising, full curve, poor fit]","7.31 nM [rising, full curve, poor fit]"
Cc1cc(C(=O)CN2C(=O)NC3(CCCc4sccc43)C2=O)c(C)n1-c1ccc(Cl)cc1 (stereo not given),-2.08,"2590 nM [rising, single point]",–
O=C(COc1ccc(S(=O)(=O)NC2CCCC2)cc1)NCC1CCCO1 (stereo not given),-13.9,"2310 nM [falling, single point]","6510 nM [falling, single point]"
O=C(c1ccccc1CCc1ccccc1)N1CCOCC1,–,"259 nM [falling, partial curve, poor fit]","651 nM [falling, partial curve]"

# 3 neighbouring entries from above, for reference:
Structure (SMILES),cell number change [%],AC50 [1],AC50 [2]
Nc1nc2n(n1)C(c1cccs1)CC(c1ccccc1)N2 (stereo not given),27.9,"146 nM [rising, full curve, poor fit]","7.31 nM [rising, full curve, poor fit]"
Cc1cc(C(=O)CN2C(=O)NC3(CCCc4sccc43)C2=O)c(C)n1-c1ccc(Cl)cc1 (stereo not given),-2.08,"2590 nM [rising, single point]",–
O=C(COc1ccc(S(=O)(=O)NC2CCCC2)cc1)NCC1CCCO1 (stereo not given),-13.9,"2310 nM [falling, single point]","6510 nM [falling, single point]"

# More entries.

Structure (SMILES),cell number change [%],AC50 [1],AC50 [2]
COCCCn1c(SCC(=O)Nc2sc3c(c2C#N)CCCC3)nnc1-c1ccncc1,9.61,"82 nM [rising, full curve, poor fit]",–
CC(C(=O)Nc1ccc2c(c1)OCCO2)c1ccc([N+](=O)[O-])cc1 (stereo not given),2.9,"580 nM [falling, single point]",–
CCOc1ccc(NC(=O)CN(C)C(=O)CN2C(=O)C3CCCCC3C2=O)cc1OCC (stereo not given),-0.775,"461 nM [rising, full curve, poor fit]",–
C=CCSc1nnc(CCCCCN2C(=O)c3cccc4cccc(c34)C2=O)o1,-7.27,–,–
CC1(C)Cc2c(C#N)c(N)sc(=S)c2CO1,-1.85,"103 nM [rising, full curve, poor fit]","1030 nM [rising, full curve]"
O=C(NCc1ccccc1)NC1(C(=O)N2CCN(c3ccccc3)CC2)CCCCC1,-15.5,"46.1 nM [falling, partial curve, poor fit]",–
Cc1ccc(OCC(=O)N2CCC(C)CC2)c([N+](=O)[O-])n1,35.9,"23100 nM [rising, single point]","32600 nM [rising, single point]"
O=C(CSc1ccncc1)Nc1ccc(S(=O)(=O)Nc2nccs2)cc1,90.1,"18400 nM [rising, partial curve]","18400 nM [rising, single point]"
Cc1nnc(-c2ccccc2)c(=O)n1/N=C/c1c(O)ccc2ccccc12,4.75,–,–
CCOc1ccccc1N1CCN(Cc2cn[nH]c2-c2ccc(F)cc2)CC1,-23.5,"11600 nM [falling, partial curve]",–
COc1ccc(C2=NOC(C(=O)Nc3cc(C)on3)C2)cc1OC (stereo not given),47.3,"6510 nM [rising, partial curve, poor fit]","291 nM [rising, full curve, poor fit]"
N#Cc1nc(-c2ccccc2Cl)oc1N1CCCCC1,-10.5,"2910 nM [rising, full curve, poor fit]",–
COc1cccc(C2=CC(c3ccc(N(C)C)cc3)n3ncnc3N2)c1 (stereo not given),-11.8,"2310 nM [rising, full curve, poor fit]",–
CC(C)c1[nH]c(=O)c(C#N)c2c1COC(C)(C)C2,-69.9,"23100 nM [falling, single point]","29100 nM [falling, single point]"
Cc1nn(Cc2ccc(Cl)cc2)c(C)c1NC(=O)C(c1ccccc1)c1ccccc1,–,"16400 nM [falling, partial curve]",–
COc1ccccc1CCNC(=O)C1CCCO1 (stereo not given),2.58,–,–
CCOC(=O)c1ccc(N2C(=O)c3n[nH]c(C)c3C2c2ccco2)cc1 (stereo not given),39.2,"1460 nM [rising, partial curve]","820 nM [rising, full curve, poor fit]"
Cc1ccc(NC(=O)Cn2cc(C(=O)C3CC3)c3ccccc32)cc1,186,–,"29100 nM [rising, single point]"
